Assay: Microtensile bond strength of dentin bonded after demineralizing agent treatment
Conditions: versus phosphoric acid-wet bonding control, 32% PA 15 s, 0.1M EDTA 60 s, 25 mg/ml GCE 30 s, n=10 teeth

Row | SMILES | bonding strength (microtensile), dry bonding mode
1 | O=C(O)CN(CCN(CC(=O)O)CC(=O)O)CC(=O)O [EDTA, ethylenediaminetetraacetic acid] | significant decrease in bonding strength
2 | O=P(O)(O)O [phosphoric acid] | significant decrease in bonding strength

From US11980681B2, “Material for demineralizing dentin collagen fibril, preparation method and application thereof” (THE FOURTH MILITARY MEDICAL UNIVERSITY OF CHINESE PEOPLE'S …, priority 2019, dated 2024)
